Results deposited as PubChem BioAssay AID1224828 (NIAID, 2016).

- Purpose: 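Find genes required for NF-kappaB p65 moving into the nucleus after LPS in mouse macrophages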 (primary screen)
- Cell system: mouse RAW264.7 G9 macrophage reporter cells (GFP-p65, Tnf promoter-mCherry)
- Knock-down reagent: siRNA pool against mouse genes, 100 nM
- Duration: 2 days siRNA transfection, then 40 min LPS before fixation
- Treatment: LPS (Salmonella minnesota R595) at 10 ng/ml
- Read-out: 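Imaged p65 nuclear translocation ratio, normalised to the plate median, converted to robust z-scores and averaged across two replicates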
- Scale: p65 translocation robust z-score: higher = more nuclear NF-kappaB p65 after LPS than the plate median; nuclear/cytoplasmic p65 ratio: higher = more nuclear NF-kappaB p65
- Active means: 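Called active when z exceeds 3.3 or falls under -1.56 (median of Tlr4 controls), giving activity score of at least 50; no calls for control wells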
- Meaning of the calls: active = hit (p65 shift raised or lowered); inactive = no clear change
Shown is a random part of about 17,000 reagents tested. In the full data, 762 (4.5%) were called active. 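Active calls include both raised and lowered p65 entry, mostly lowered; wells with fewer than 50 cells lack a z-score.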 The raw values are shown without normalisation. A reagent listed more than once was tested more than once; the source does not tell the runs apart. No sequences are given here.

Which result is listed for Tra2b [SID315469251]?
p65 translocation robust z-score: -1.29; nuclear/cytoplasmic p65 ratio, rep 1: 1.18; nuclear/cytoplasmic p65 ratio, rep 2: 1.15; low cell count flag: enough cells to score; outcome: inactive

Which result is listed for Tra2b [SID315469251]?
nuclear/cytoplasmic p65 ratio, rep 1: 1.21; nuclear/cytoplasmic p65 ratio, rep 2: 1.21; low cell count flag: fewer than 50 cells per well; well left out of scoring; outcome: inactive

What did the screen give for Ubqln3 [SID315479737]?
p65 translocation robust z-score: -0.59; nuclear/cytoplasmic p65 ratio, rep 1: 1.46; nuclear/cytoplasmic p65 ratio, rep 2: 1.39; low cell count flag: enough cells to score; outcome: inactive

What is on record for Ptpn22 [SID315468805]?
p65 translocation robust z-score: 0.89; nuclear/cytoplasmic p65 ratio, rep 1: 1.63; nuclear/cytoplasmic p65 ratio, rep 2: 1.52; low cell count flag: enough cells to score; outcome: inactive

With Mon1a [SID315474632], what does the deposit list?
nuclear/cytoplasmic p65 ratio, rep 1: 1.1; nuclear/cytoplasmic p65 ratio, rep 2: 1.16; low cell count flag: fewer than 50 cells per well; well left out of scoring; outcome: inactive

With Zfp296 [SID315472042], what does the deposit list?
p65 translocation robust z-score: -0.11; nuclear/cytoplasmic p65 ratio, rep 1: 1.35; nuclear/cytoplasmic p65 ratio, rep 2: 1.28; low cell count flag: enough cells to score; outcome: inactive

What is on record for Nexn [SID315473641]?
p65 translocation robust z-score: -0.18; nuclear/cytoplasmic p65 ratio, rep 1: 1.76; nuclear/cytoplasmic p65 ratio, rep 2: 1.5; low cell count flag: enough cells to score; outcome: inactive

For Col5a2 [SID315466062], how do the results read?
p65 translocation robust z-score: -1.03; nuclear/cytoplasmic p65 ratio, rep 1: 1.33; nuclear/cytoplasmic p65 ratio, rep 2: 1.25; low cell count flag: enough cells to score; outcome: inactive

For Mmp7 [SID315467950], what does the deposit list?
p65 translocation robust z-score: -0.27; nuclear/cytoplasmic p65 ratio, rep 1: 1.43; nuclear/cytoplasmic p65 ratio, rep 2: 1.29; low cell count flag: enough cells to score; outcome: inactive

What is on record for Fbxw2 [SID315470736]?
nuclear/cytoplasmic p65 ratio, rep 1: 1.38; nuclear/cytoplasmic p65 ratio, rep 2: 1.1; low cell count flag: fewer than 50 cells per well; well left out of scoring; outcome: inactive

With Or2q1 [SID315480119], how do the results read?
nuclear/cytoplasmic p65 ratio, rep 1: 1.64; nuclear/cytoplasmic p65 ratio, rep 2: 1.44; low cell count flag: fewer than 50 cells per well; well left out of scoring; outcome: inactive

With Rbmx2 [SID315477569], what was measured?
nuclear/cytoplasmic p65 ratio, rep 1: 1.98; nuclear/cytoplasmic p65 ratio, rep 2: 1.35; low cell count flag: fewer than 50 cells per well; well left out of scoring; outcome: inactive

With Rflna [SID315474675], what does the deposit list?
p65 translocation robust z-score: 0.51; nuclear/cytoplasmic p65 ratio, rep 1: 1.31; nuclear/cytoplasmic p65 ratio, rep 2: 1.35; low cell count flag: enough cells to score; outcome: inactive

Quoted from the listing for reference:
Col5a2 [SID315466062] | p65 translocation robust z-score = -1.03; nuclear/cytoplasmic p65 ratio, rep 1 = 1.33; nuclear/cytoplasmic p65 ratio, rep 2 = 1.25; low cell count flag = enough cells to score; outcome = inactive
Mmp7 [SID315467950] | p65 translocation robust z-score = -0.27; nuclear/cytoplasmic p65 ratio, rep 1 = 1.43; nuclear/cytoplasmic p65 ratio, rep 2 = 1.29; low cell count flag = enough cells to score; outcome = inactive

Next entries:
With Cstf2 [SID315476675], what was measured?
p65 translocation robust z-score: -0.23; nuclear/cytoplasmic p65 ratio, rep 1: 1.56; nuclear/cytoplasmic p65 ratio, rep 2: 1.73; low cell count flag: enough cells to score; outcome: inactive

For Ube2l6 [SID315471685], how do the results read?
p65 translocation robust z-score: 0.01; nuclear/cytoplasmic p65 ratio, rep 1: 1.55; nuclear/cytoplasmic p65 ratio, rep 2: 1.47; low cell count flag: enough cells to score; outcome: inactive

Which result is listed for Tti1 [SID315475119]?
nuclear/cytoplasmic p65 ratio, rep 1: 1.42; nuclear/cytoplasmic p65 ratio, rep 2: 1.45; low cell count flag: fewer than 50 cells per well; well left out of scoring; outcome: inactive

What is on record for Oxnad1 [SID315478220]?
p65 translocation robust z-score: 0.12; nuclear/cytoplasmic p65 ratio, rep 1: 1.5; nuclear/cytoplasmic p65 ratio, rep 2: 1.97; low cell count flag: enough cells to score; outcome: inactive

How did the screen score Fastkd5 [SID315481748]?
p65 translocation robust z-score: 1.32; nuclear/cytoplasmic p65 ratio, rep 1: 1.91; nuclear/cytoplasmic p65 ratio, rep 2: 1.87; low cell count flag: enough cells to score; outcome: inactive

For Cdyl [SID315465927], what does the deposit list?
p65 translocation robust z-score: 1.15; nuclear/cytoplasmic p65 ratio, rep 1: 1.58; nuclear/cytoplasmic p65 ratio, rep 2: 1.57; low cell count flag: enough cells to score; outcome: inactive

What did the screen give for Trappc14 [SID315478929]?
p65 translocation robust z-score: 0.22; nuclear/cytoplasmic p65 ratio, rep 1: 1.34; nuclear/cytoplasmic p65 ratio, rep 2: 1.88; low cell count flag: enough cells to score; outcome: inactive

What is on record for Tubb6 [SID315473331]?
p65 translocation robust z-score: -0.16; nuclear/cytoplasmic p65 ratio, rep 1: 1.57; nuclear/cytoplasmic p65 ratio, rep 2: 1.61; low cell count flag: enough cells to score; outcome: inactive
